# In the supplement of paper PMC9877034:
# Where a name gives a salt, the structure may show the parent alone. Whole data set: some 1,000 compounds, median “cFRET/donor change relative to DMSO, normalised to beta-lapachone positive control (supercomplex I-IV assembly)” near 0.18, cut for the lowest 2% near -1. This is one part of the list.
# Test system: C2C12 (NDUFB8-AcGFP / COX8A-DsRed-Monomer FRET reporter)
# Experiment: cFRET/donor change relative to DMSO, normalised to beta-lapachone positive control (supercomplex I-IV assembly) (fraction of beta-lapachone effect); higher = more respiratory supercomplex assembly
# Details: 40 µM; 24 h
# Method: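 Cells were treated with 40 uM compound for 24 h and imaged on an IN Cell Analyzer 6000. Corrected FRET was divided by donor signal (cFRET/donor) and measured in two replicate experiments. The score is (mean cFRET/donor of compound - mean DMSO) / (mean beta-lapachone 40 uM - mean DMSO). Compounds flagged for prominent cell death, abnormal morphology or decreased cell number were excluded.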
row,SMILES,cFRET/donor change
1,CN1CCC[C@@H]1CCO[C@](C)(c1ccccc1)c1ccc(Cl)cc1 [Clemastine fumarate],0.421
2,CC[N+](CC)(CC)CCOc1cccc(OCC[N+](CC)(CC)CC)c1OCC[N+](CC)(CC)CC [Gallamine triethiodide],0.564
3,CCOC(=O)[N-]c1c[n+](N2CCOCC2)no1 [Molsidomine],0.0144
4,O=C(O)CCCCC1CCSS1 (racemic) [(±)-alpha-Lipoic Acid],0.0292
5,CC(C)(C)NCC(O)c1cc(O)cc(O)c1 (stereo unspecified) [Terbutaline hemisulfate],0.442
6,C=C(c1ccc(C(=O)O)cc1)c1cc2c(cc1C)C(C)(C)CCC2(C)C [Bexarotene],0.499
7,CCCc1nn(C)c2c(=O)[nH]c(-c3cc(S(=O)(=O)N4CCN(C)CC4)ccc3OCC)nc12 [Sildenafil citrate salt],0.123
8,COc1cc(CNC(=O)CCCCCCC(C)C)ccc1O [Dihydrocapsaicin],0.743
9,CCCCS(=N)(=O)CCC(N)C(=O)O [L-Buthionine-sulfoximine],-0.0531
10,COc1cccc(OC)c1OCCNCC1CSc2ccccc2O1 (stereo unspecified) [Benoxathian hydrochloride],0.382
11,COc1cc2nc(N3CCCN(C)CC3)nc(NC3CCN(Cc4ccccc4)CC3)c2cc1OC,0.186
12,NC1CONC1=O (racemic) [DL-Cycloserine],0.397
13,CN(C)CCCc1cc(C(=O)Nc2ccc(-c3ccncc3)cc2)ccc1O,0.377
14,CCC1(C)CC(=O)NC1=O (stereo unspecified) [Ethosuximide],0.147
15,Cc1nc2c([nH]1)c(=O)n(C)c(=O)n2Cc1ccco1 [Furafylline],0.0581
16,CC(NCCc1ccc(O)cc1)C(O)c1ccc(O)cc1 (stereo unspecified) [Ritodrine hydrochloride],-0.0849
17,"OC[C@H]1NC[C@@H](O)[C@@H]1O [1,4-Dideoxy-1,4-imino-D-arabinitol]",0.377
18,NS(=O)(=O)c1nn2cc(-c3ccccc3)nc2s1,-0.298
19,NCCCS(=O)(=O)O [3-Amino-1-propanesulfonic acid sodium],-2.05
20,"Clc1ccc(C(c2ccccc2Cl)C(Cl)Cl)cc1 (stereo unspecified) [1-(2-Chlorophenyl)-1-(4-chlorophenyl)-2,2-dichloroethane]",0.237
21,CC(C)NNC(=O)c1ccncc1 [Iproniazid phosphate],-0.254
22,O=C(O)c1cc(=O)c2ccccc2[nH]1 [Kynurenic acid],-0.161
23,"O=c1cc(N2CCOCC2)oc2c(-c3ccccc3)cccc12 [LY-294,002 hydrochloride]",0.281
24,CCc1ccc(/C=C2/SC(=S)NC2=O)cc1,-1.41
25,C=CCNc1ncnc2ccc(Br)cc12,0.501
26,C[N+](C)(C)CCOC(N)=O [Carbachol],-0.216

# Four entries from above, as tab-separated lines.
row	SMILES	cFRET/donor change
7	CCCc1nn(C)c2c(=O)[nH]c(-c3cc(S(=O)(=O)N4CCN(C)CC4)ccc3OCC)nc12 [Sildenafil citrate salt]	0.123
17	OC[C@H]1NC[C@@H](O)[C@@H]1O [1,4-Dideoxy-1,4-imino-D-arabinitol]	0.377
19	NCCCS(=O)(=O)O [3-Amino-1-propanesulfonic acid sodium]	-2.05
24	CCc1ccc(/C=C2/SC(=S)NC2=O)cc1	-1.41

# Next part

row,SMILES,cFRET/donor change
1,CCN1C(=O)C=CC1=O [N-Ethylmaleimide],0.275
2,O=C1c2c(O)ccc(O)c2C(=O)c2c(NCCNCCO)ccc(NCCNCCO)c21 [Mitoxantrone],0.111
3,"N[C@@H](Cc1ccc(O)c(O)c1)C(=O)O [L-3,4-Dihydroxyphenylalanine]",-0.183
4,CCCCc1ncc(/C=C(\Cc2cccs2)C(=O)O)n1Cc1ccc(C(=O)O)cc1 [Eprosartan mesylate],-0.151
5,CN1CCN2c3ccccc3Cc3ccccc3C2C1 (stereo unspecified) [Mianserin hydrochloride],0.3
6,"CCN1CCCC1CNC(=O)c1cc(S(N)(=O)=O)ccc1OC (single isomer, unassigned; (-)) [(-)-Sulpiride]",0.312
7,N[C@@H](COP(=O)(O)O)C(=O)O [O-Phospho-L-serine],0.129
8,CCCCc1oc2ccccc2c1C(=O)c1cc(I)c(OCCN(CC)CC)c(I)c1 [Amiodarone hydrochloride],0.137
9,COc1ccc(Br)cc1S(=O)(=O)NC(=O)/C=C/c1ccccc1Cc1ccc2ccccc2c1,0.583
10,CO[C@H]1C[C@@H]2CC[C@@H](C)[C@@](O)(O2)C(=O)C(=O)N2CCCC[C@H]2C(=O)O[C@H]([C@H](C)C[C@@H]2CC[C@@H](OC(=O)C(C)(CO)CO)[C@H](OC)C2)CC(=O)[C@H](C)/C=C(\C)[C@@H](O)[C@@H](OC)C(=O)[C@H](C)C[C@H](C)/C=C/C=C/C=C/1C [Temsirolimus],-0.55
11,CC12CC3CC(C)(C1)CC(N)(C3)C2 [Memantine hydrochloride],0.503
12,O=C(Nc1ccc([N+](=O)[O-])cc1Cl)c1cc(Cl)ccc1O [Niclosamide],-0.363
13,O=C(Nc1cccnc1)N1CCC(Cc2cccc(Oc3ccc(C(F)(F)F)cn3)c2)CC1 [PF 3845 hydrate],0.494
14,C#C[C@]1(O)CC[C@H]2[C@@H]3CCC4=Cc5oncc5C[C@]4(C)[C@H]3CC[C@@]21C [Danazol],0.509
15,COC(=O)[C@H]1[C@H]2C[C@H]3c4[nH]c5ccccc5c4CCN3C[C@H]2CC[C@@H]1O [Rauwolscine hydrochloride],0.00542
16,COC(=O)C(C)(N)Cc1ccc(O)cc1 (racemic) [alpha-Methyl-DL-tyrosine methyl ester hydrochloride],0.302
17,CC(C)NCC(O)COc1cccc2[nH]ccc12 (stereo unspecified) [Pindolol],0.485
18,CC(C)C(=O)c1c(C(C)C)nn2ccccc12 [Ibudilast],0.498
19,"Nc1ncnc2c1ncn2[C@@H]1O[C@@H]2COP(=O)(O)O[C@H]2[C@H]1O [Adenosine 3',5'-cyclic monophosphate]",-0.0353
20,Nc1nc(N)c2nc(-c3ccccc3)c(N)nc2n1 [Triamterene],0.563
21,CN1[C@@H]2CC[C@H]1C[C@@H](OC(=O)C(O)c1ccccc1)C2 (mixture of isomers) [DL-Homatropine hydrobromide],0.0655
22,COc1ccc(CCn2nnnc2C2(c3ccc(C)cc3)CC2)cc1 [Mephetyl tetrazole],0.388
23,C=C1C(=O)O[C@H]2[C@H]1CC/C(C)=C/CC[C@@]1(C)O[C@@H]21 [Parthenolide],0.366
24,O=C1NC(c2cccc([N+](=O)[O-])c2)=CCN1c1ccccc1O [Icilin],0.561
25,Nc1ncnc2c1ncn2C1CCCC1 [9-cyclopentyladenine],0.267
